Measurements from article PMC2614481.
No constants are given. Whether binding was seen depends on the method and setting. In cells and extracts the contact can be indirect. Here binding means that the protein was enriched with, or labelled near, the bait; the list need not be complete.

Tests used:
Experiment in all cases: affinity purification with mass spectrometry; TAP of baits TAP-tagged at their genes from S. pombe extracts; eluates on 6-18% gels, Coomassie, bands and slices identified by MALDI peptide mapping and LC-MS/MS; common background removed, A-index cut-off 1.75
[1] = target: T1, Clr6p (S. pombe) (S. pombe) (UniProt O59702)
T1 sequence: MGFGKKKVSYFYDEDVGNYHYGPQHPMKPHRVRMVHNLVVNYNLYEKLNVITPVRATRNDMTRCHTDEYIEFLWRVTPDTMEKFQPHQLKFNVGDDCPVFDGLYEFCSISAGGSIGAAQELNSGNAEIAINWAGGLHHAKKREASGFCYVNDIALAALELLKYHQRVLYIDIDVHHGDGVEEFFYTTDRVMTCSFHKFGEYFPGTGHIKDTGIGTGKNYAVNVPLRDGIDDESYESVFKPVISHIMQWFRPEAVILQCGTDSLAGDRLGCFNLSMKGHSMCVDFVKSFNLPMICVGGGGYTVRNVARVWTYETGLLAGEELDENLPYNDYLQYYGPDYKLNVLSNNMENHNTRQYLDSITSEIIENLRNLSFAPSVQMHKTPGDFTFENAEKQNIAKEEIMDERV

Sp_Alp13p (S. pombe) = target: T2, Sp_Alp13p (S. pombe) (UniProt O13953)
T2 sequence: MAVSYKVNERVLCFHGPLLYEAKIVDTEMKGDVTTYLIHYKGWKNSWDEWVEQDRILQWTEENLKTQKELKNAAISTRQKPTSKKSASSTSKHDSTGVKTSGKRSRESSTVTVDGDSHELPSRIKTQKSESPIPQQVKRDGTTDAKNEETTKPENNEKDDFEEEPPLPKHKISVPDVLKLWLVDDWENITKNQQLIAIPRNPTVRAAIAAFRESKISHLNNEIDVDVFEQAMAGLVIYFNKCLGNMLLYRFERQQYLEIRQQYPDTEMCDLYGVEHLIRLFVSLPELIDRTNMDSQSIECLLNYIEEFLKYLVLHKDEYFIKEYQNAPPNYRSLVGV

Sp_Png2 (S. pombe) = target: T3, Sp_Png2 (S. pombe) (UniProt O74736)
T3 sequence: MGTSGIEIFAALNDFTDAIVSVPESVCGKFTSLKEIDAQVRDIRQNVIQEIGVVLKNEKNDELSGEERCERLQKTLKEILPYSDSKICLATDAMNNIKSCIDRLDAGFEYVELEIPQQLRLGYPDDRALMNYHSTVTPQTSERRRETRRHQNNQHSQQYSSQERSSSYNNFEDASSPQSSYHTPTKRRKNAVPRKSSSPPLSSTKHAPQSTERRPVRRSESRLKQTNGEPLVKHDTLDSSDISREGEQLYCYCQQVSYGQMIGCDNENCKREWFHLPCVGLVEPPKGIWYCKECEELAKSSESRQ

Binder	binding [1]	binding (Sp_Alp13p (S. pombe))	binding (Sp_Png2 (S. pombe))
Sp_Pst2p (protein, UniProt O13919 1-1075) MEQTLAILKNDNSTLVAEMQNQLVHDFSPNGTALPELDIKAFVQKLGQRLCHRPYVYSAFMDVVKALHNEIVDFPGFIERISVILRDYPDLLEYLNIFLPSSYKYLLSNSGANFTLQFTTPSGPVSTPSTYVATYNDLPCTYHRAIGFVSRVRRALLSNPEQFFKLQDSLRKFKNSECSLSELQTIVTSLLAEHPSLAHEFHNFLPSSIFFGSKPPLGSFPLRGIQSSQFTLSNISDLLSQSRPDNLSPFSHLSNESSDFFKNVKNVLTDVETYHEFLKLLNLYVQGIIDRNILVSRGFGFLKSNSGLWRSFLSLTSLSPEEFLSVYNSACSDFPECGPSYRLLPVEERNISCSGRDDFAWGILNDDWVSHPTWASEESGFIVQRKTPYEEAMTKLEEERYEFDRHIEATSWTIKSLKKIQNRINELPEEERETYTLEEGLGLPSKSIYKKTIKLVYTSEHAEEMFKALERMPCLTLPLVISRLEEKNEEWKSVKRSLQPGWRSIEFKNYDKSLDSQCVYFKARDKKNVSSKFLLAEADILRSQAKLHFPLRSRSAFEFSFVYDNEIVLFDTCYMVCTYIVCNSPSGLKKVEHFFKNILPLHFGLEKDKFSIFLDQVFRGPDYDVNAPNIVGNKPVRRKRSNSITQLTEFVKQPKINGQRESRSAAAARKKEESGNKSQSNSQNSLSDESGNVTPVSKKQLSQPAAAIKASLKYPSHPDSLLEHQDHAGDTENEMHDDVDKEQFGYSSMYVFFRLFNLLYERLYELQRLEDQVSIIQQRIIPNPVSQKQKIWRDRWNDLSDVPDEKTHYENTYVMILRLIYGIVDQSAFEDYLRFYYGNKAYKIYTIDKLVWSAAKQVHHIVSDGKYKFVTSLVEQNSSASPKKNYDDFLYRLEIEKLLNPDEILFRFCWINKFKSFGIKIMKRANLIVDQSLDTQRRVWKKYVQNYRIQKLTEEISYKNYRCPFLCRNIEKERTVEQLVSRLQTKLLRSAELVSGLQAKLCLDSFKLLYLPRTEDSYIDASYLRLRDTDFLDCQNKRKQRWRNRWESLLKSVRGTSDNTAEVNFDADINALFIP	binds	binds	–
Sp_Prw1p (protein, UniProt O14021 1-431) MAVSAVPHPSKQAQASEEGINQEKCINEEYKIWKKNSPFLYDLIITRALEWPCMSLQWYPEQQIFAEHGYTEQKMFLGVRADVGKYLLAVASIQLPYLNQTVPPTTMEGASAGDESSLRVNISNLYSHPESVCSAKLMPQDDSCVATVGNYHNDVLVFDKESFESYSSASESPLKPKYRLTKHTQPCTSVCWNFLSKGTLVSGSQDATLSCWDLNAYNESDSASVLKVHISSHEKQVSDVRFHYKHQDLLASVSYDQYLHVHDIRRPDASTKPARSVHAHSGPIHSVAFNPHNDFILATCSTDKTIALWDLRNLNQRLHTLEGHEDIVTKISFSPHEEPILASTSADRRTLVWDLSRIGEDQPAEEAQDGPPELLFMHGGHTSCTIDMDWCPNYNWTMATAAEDNILQIWTPSRSIWGNEQLEEDATAYLS	binds	–	binds
